This assay concerns the target PfSAMS-GFP-BirA fusion protein (P. falciparum). Briefly: proximity labelling; BioID: PfSAMS-pfama1-GFP-BirA line treated with 50 µM biotin for 20-24 h; schizonts enriched by Percoll, lysed; biotinylated proteins purified on streptavidin beads and identified by LC-MS in triplicate; WT NF54 lysates as control; hits at least two-fold enriched, FDR 0.01.

These are yes or no findings as the source states them, for the method shown. In cells and extracts the contact can be indirect. A yes stands for co-enrichment or nearness to the bait. Other partners may have been found.

B1: phosphoethanolamine N-methyltransferase PfPMT (enzyme, UniProt Q8IDQ9 1-266)
chain: MTLIENLNSDKTFLENNQYTDEGVKVYEFIFGENYISSGGLEATKKILSDIELNENSKVLDIGSGLGGGCMYINEKYGAHTHGIDICSNIVNMANERVSGNNKIIFEANDILTKEFPENNFDLIYSRDAILHLSLENKNKLFQKCYKWLKPTGTLLITDYCATEKENWDDEFKEYVKQRKYTLITVEEYADILTACNFKNVVSKDLSDYWNQLLEVEHKYLHENKEEFLKLFSEKKFISLDDGWSRKIKDSKRKMQRWGYFKATKN
Take B1: the binding entry is “binds”.
